For some of these results: Negatives hold for the conditions tested. For some of these results: Tags and fusion partners may be left off the protein sequences shown. For some of these results: Construct, isoform or probe ends are uncertain for at least one entry.
What was measured:
Experiment in all cases: EMSA
[1] = molecular target: T1, AvaR3 (Streptomyces avermitilis) (UniProt Q82H43); settings: no binding even at high concentration; not stated; modified EMSA as previously described (ref 23); recombinant protein; residues 1-287; protein details: C-terminal His6 (pET23b, from primers); probe letters rebuilt from the primers and the genome
T1 sequence (looked up): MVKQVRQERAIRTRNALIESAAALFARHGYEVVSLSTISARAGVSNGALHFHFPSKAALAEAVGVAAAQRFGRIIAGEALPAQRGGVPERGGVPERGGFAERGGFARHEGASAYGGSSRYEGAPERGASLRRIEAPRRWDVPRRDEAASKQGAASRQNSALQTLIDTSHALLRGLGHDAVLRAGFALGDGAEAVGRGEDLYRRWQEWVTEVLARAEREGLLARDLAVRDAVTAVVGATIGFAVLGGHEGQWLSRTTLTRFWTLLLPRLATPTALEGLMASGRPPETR

[2] = molecular target: AvaR1 (Streptomyces avermitilis) (UniProt Q82H41); settings: 6 ng probe; not stated; modified EMSA as previously described (ref 23); recombinant protein; residues 1-234; protein details: C-terminal His6 (pET23b, from primers); probe letters rebuilt from the primers and the genome
[3] = molecular target: T2, CprB (Streptomyces coelicolor M145) (UniProt Q7AKF2); settings: 0-1 uM protein, 6.6 ng probe; not stated; modified EMSA as previously described (ref 23); recombinant protein; protein details: C-terminal His6 (pET23b, from primers); probe letters rebuilt from the primers and the genome
T2 sequence (looked up, limits assumed): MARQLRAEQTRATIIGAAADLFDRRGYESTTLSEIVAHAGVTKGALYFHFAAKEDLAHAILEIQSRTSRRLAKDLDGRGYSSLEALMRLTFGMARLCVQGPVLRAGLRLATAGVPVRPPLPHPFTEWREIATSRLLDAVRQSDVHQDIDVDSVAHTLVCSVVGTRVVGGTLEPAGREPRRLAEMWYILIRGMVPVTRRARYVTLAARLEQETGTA

[4] = molecular target: T3, CprA (Streptomyces coelicolor M145) (UniProt Q7AKE7); settings: 0-0.3 uM protein, 6.6 ng probe; not stated; modified EMSA as previously described (ref 23); recombinant protein; residues 1-215; protein details: C-terminal His6 (pET23b, from primers); probe letters rebuilt from the primers and the genome
T3 sequence (looked up): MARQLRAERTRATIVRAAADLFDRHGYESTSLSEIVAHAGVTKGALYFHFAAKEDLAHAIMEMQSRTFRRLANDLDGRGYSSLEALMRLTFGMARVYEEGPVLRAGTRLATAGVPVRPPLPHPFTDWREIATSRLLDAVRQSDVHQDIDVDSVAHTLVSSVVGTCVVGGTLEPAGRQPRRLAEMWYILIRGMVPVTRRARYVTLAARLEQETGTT

Sequence | binding result [1] | binding result [2] | binding result [3] | binding result [4]
CGAGCTTCTCCCTGGCTTGGGACGGGCTGACGTGAACCACGGGACCCGAGAAGGGCTGAGGAAGGGCTGGAGAGCTGCGGAAGAGCTGCGGAGGAGCTGCGGAAGAGCTGCGGAAGAGCTGGAGGTCAAAGATACGTACTAGACGGTTTTGTCTTCAAGTCCCTCTTGCGGTCAAGGGTCATCCCTTACAAGGGAGTTGGGGGTGAGATATGTGTTTTTGAGTGGTTTGTGAGAGGGCGAGGGGAGCATTGAAAAACCGTTCAGCTGGTTTTATCGTCCCGGTCAGGACCGGGCCTGTCTTCGGCGGTGGAGTGGAGGATCGTCGCTGTTAGGGTGCGAACCGCTTGGTCTTTTCCCGCTGGTCGGGACGGTGTCCCGCGATCCGGACGGTGTCCCACTGGTCGGGACGGTGTCCCGCTGGTCGGGCTGGTGCGGAGGGTGCGGATCCCGC (double strand) [Paco] | no binding | binds | – | –
GCGGGATCCTGAGGATCTCCGTGATCGTGGCAGCTTGGTAGCCCTGCTTCTCGAAGACCTGCGCCGCGGCGTCCAGGATCGTCTGCCGCGTGCGGATCGCCCGGTCCTGCTTGGCCATGCCTGCCTCCTTGTTCATGTCTCCCCCGGGAAGGATAGAAAAAAAACCGCTCAGTCTGTATCTTAACGTTCGCGCATACAGAACAGCTCGGCATCACATGATTCCTGGGGGGGACCCATGCCCGAAGCAGTAGTTTTGATCAATTCTGCGTCCGATGCCAACTCGATCGAACAAACCGCATTGCCGGTTCCGATGGCGCTTGTCCACCGGACCAGGGTGCATAAGTAGCTGA (double strand) [PscbA] | – | – | binds | binds
